Over roughly 33,000 sequences, “E-score (-0.5 to 0.5)” has its median near -8e-05; the highest 2% begin near 0.23. Some of the results follow.
Molecular target: T1, Nrg2 (UniProt P38082)
T1 sequence: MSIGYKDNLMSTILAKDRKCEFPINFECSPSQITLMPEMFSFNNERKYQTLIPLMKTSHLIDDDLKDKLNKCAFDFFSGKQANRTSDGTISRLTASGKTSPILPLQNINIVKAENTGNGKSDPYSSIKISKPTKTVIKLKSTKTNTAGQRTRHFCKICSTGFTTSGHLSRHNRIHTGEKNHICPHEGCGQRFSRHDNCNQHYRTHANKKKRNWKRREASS
Assay: PBM E-score (8-mer binding enrichment) (E-score (-0.5 to 0.5)); higher = stronger / more preferred TF binding
Conditions: protein concentration: 100 nM; construct: GST-full length
Summary of the method: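 Full-length yeast transcription factors or their DNA-binding domains, GST-tagged and expressed with PURExpress, were applied at about 100-200 nM to universal all-10-mer Agilent arrays. These arrays had been made double-stranded by primer extension on fresh or once-stripped slides. Detection used fluorescent anti-GST, normalisation used masliner, and E-scores for ungapped eight-base words pooled with reverse complements came from the Universal PBM Analysis Suite.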

| Sequence | PBM E-score |
| --- | --- |
| GCATATAA | -0.0127 |
| CACATTGC | 0.0874 |
| ATCGGATA | 0.122 |
| CTGCCTTA | -0.0737 |
| CGTGATCC | -0.0253 |
| CTGGCGCC | 0.281 |
| CACCCTAC | 0.0654 |
| CCCTAAAG | -0.143 |
| CGGGGAGA | -0.201 |
| CTGAGCTC | 0.118 |
| AAGCAAGG | 0.128 |
| AACCTCAG | 0.072 |
| TACCAGGA | 0.181 |
| TAAAGTCA | 0.0955 |
| ATGTAGCA | 0.0546 |
| CAAGGCCC | -0.0232 |
| AGAATCGG | -0.129 |
| ACTATATG | -0.00885 |
| TTAGTGAA | 0.0802 |
| CAAAAGAC | -0.036 |
| GATGCCCA | 0.0428 |
| GAGGATGC | -0.141 |
| TATTGCAA | 0.253 |
| CGCAAAAG | -0.0895 |
| CGTACCTA | -0.179 |

Exported with bars between the fields: part of the list above.
Sequence | PBM E-score
AAGCAAGG | 0.128
AACCTCAG | 0.072
TACCAGGA | 0.181
TAAAGTCA | 0.0955
ATGTAGCA | 0.0546
CAAGGCCC | -0.0232
AGAATCGG | -0.129

At a glance, some entries already given.

| Sequence | PBM E-score |
| --- | --- |
| CAAAAGAC | -0.036 |
| GATGCCCA | 0.0428 |
| GAGGATGC | -0.141 |
| TATTGCAA | 0.253 |
| CGCAAAAG | -0.0895 |

Continuation:

| Sequence | PBM E-score |
| --- | --- |
| CATATCCC | 0.214 |
| CGACTCAC | -0.0757 |
| AGGGGAAT | 0.155 |
| GGAAGCAC | 0.00747 |
| CTTAGAGA | -0.105 |
| CTAGAGAA | -0.028 |
| CCCCTTCC | -0.187 |
| ATTCACAA | 0.227 |
| ACTAAAGG | 0.0464 |
| GAATGGGC | 0.035 |
| CGCACGCG | -0.0533 |
| CAGAGCAC | 0.0415 |
| GATCTGGC | 0.0551 |
| GGGGGCAC | -0.336 |
| ATCGGTGG | -0.15 |
| ATCCGATG | 0.106 |
| ACCCATCA | 0.00202 |
| AGGGCCCA | 0.359 |
| AACTGGCT | -0.114 |
| AGAGCGGG | -0.128 |
| CGAAGGCC | -0.187 |
| GATAAGGC | -0.121 |
| AAAAGGCG | -0.116 |
| CCTAATCC | -0.129 |
| AATAAATC | 0.0327 |

| Sequence | PBM E-score |
| --- | --- |
| GAGTTGAA | -0.0984 |
| CATACGAA | 0.0303 |
| CTTCCCGC | 0.0249 |
| GTCCCCTA | 0.188 |
| AGTGAACT | 0.0442 |
| AATTGCCG | -0.0513 |
| ACTCCCCG | 0.0706 |
| GGCGGACA | -0.00785 |
| GCCAGTTA | 0.0271 |
| CTTAAATA | -0.1 |
| CGACCCTA | 0.109 |
| AGTCGTAT | -0.0199 |
| GGTGACCA | -0.127 |
| CCGATGCG | -0.107 |
| GGCTTGGA | -0.237 |
| CGGTACGA | -0.111 |
| ACCCATTA | 0.0341 |
| GTGCTTGA | -0.0768 |
| CCCACGCG | -0.081 |
| CGAACACG | 0.0814 |
| AAGGGGCT | 0.0982 |
| CAAGTGTG | 0.0311 |
| GCGTATCC | -0.198 |
| CGAAGTCG | 0.174 |
| ACCATAGG | -0.217 |

Looked up one by one from above, two records:

| Sequence | PBM E-score |
| --- | --- |
| GGCTTGGA | -0.237 |
| CGAACACG | 0.0814 |

Continuation:

| Sequence | PBM E-score |
| --- | --- |
| AATAAAAA | 0.15 |
| GAGTTAGA | -0.0619 |
| GATGGTAA | -0.0415 |
| AGTTGGCG | 0.0156 |
| GATTATCA | 0.0629 |
| CGACGTCG | 0.0466 |
| GACAGAGA | -0.0169 |
| CGAAGCCG | -0.0196 |
| ACATGCTA | 0.00595 |
| CTAATTAC | 0.15 |
| GGTAATAA | 0.188 |
| AGCAATAT | 0.0474 |
| AGAGTCAA | -0.155 |
| AGGTAGCA | -0.201 |
| CTTGTGGA | -0.0088 |
| ATGTACGG | 0.00875 |
| CATGGGAA | 0.0176 |
| AAGGAGAC | -0.156 |
| CGCGTTTA | 0.0535 |
| GGAAGGGA | -0.0876 |
| ACGGCCGC | 0.0427 |
| GGAGGTTA | -0.248 |
| AGAAGGGA | -0.222 |
| AAACAACT | 0.165 |
| AAAGAGGA | -0.103 |

| Sequence | PBM E-score |
| --- | --- |
| GTATATCA | 0.0512 |
| GCCGAGCA | -0.166 |
| CACCTCCC | -0.294 |
| AAATTAGC | 0.0728 |
| CGGTCAGC | -0.0927 |
| TTCTGAAA | 0.0452 |
| ACAACCGG | 0.0311 |
| GACGTCTA | -0.145 |
| ATACTGTA | 0.141 |
| CATTTGCC | -0.025 |
| AGGCGCAC | 0.131 |
| CGAGTACC | 0.0748 |
| AATGATAC | 0.184 |
| CACTTCAA | -0.0221 |
| CGCCCTTA | -0.0359 |
| CACTGATC | -0.0263 |
| CCTGAAAC | 0.0808 |
| AGGGTGAA | -0.0542 |
| CATATTCA | 0.113 |
| CGGCATGA | 0.187 |
| CTTTACCC | -0.191 |
| CCCTGCTC | -0.017 |
| CTGCGTGC | -0.107 |
| GGAGACCA | -0.0418 |
| CTCTAGGC | -0.114 |

| Sequence | PBM E-score |
| --- | --- |
| CCGGACGG | -0.235 |
| AACGCTCG | -0.029 |
| CCAAACTC | 0.0839 |
| ACCCGCGC | 0.229 |
| CGACCTAC | -0.222 |
| GATGGGGC | 0.0459 |
| GGCCTACA | 0.0651 |
| CGGGGAAC | -0.14 |
| AAAATCGC | 0.0796 |
| CCGTACAG | -0.063 |
| GTTACTAA | 0.0902 |
| CTGTTCGC | 0.0452 |
| CTGGGGTA | -0.077 |
| GCCCACCC | 0.184 |
| GGGTCTAA | 0.098 |
| GTCGGGTA | 0.052 |
| CTTAGATA | 0.0693 |
| ATACCGTA | 0.00794 |
| AATCGCCT | 0.0199 |
| ATGGCCAT | 0.0991 |
| GTTGTGAA | 0.00791 |
| CTATTGTC | 0.117 |
| ACGGGAAT | -0.101 |
| GATGGAAA | 0.00645 |
| TCCTCTCA | -0.0174 |

| Sequence | PBM E-score |
| --- | --- |
| ACCAAGTA | 0.159 |
| ACGGCAGG | 0.0215 |
| GTATATGA | 0.00303 |
| ATTTACTA | 0.0988 |
| ATTTTTCG | 0.204 |
| GGGTTCAA | 0.123 |
| CCGGATAA | 0.089 |
| GTTGGAGA | 0.023 |
| CTCTCCCA | -0.0787 |
| AGAGTAAC | -0.121 |
| ACGATAGG | -0.0145 |
| TCAACTAA | 0.0939 |
| GACGTTAA | 0.201 |
| AACTTAGG | -0.0229 |
| GTCTGGCA | -0.0905 |
| GGGTGCGA | -0.146 |
| AGGTGTCA | 0.211 |
| TGTTCAAA | 0.0766 |
| CCGAAAAA | 0.142 |
| AAAAATCA | 0.105 |
| GTTCAGGA | 0.0304 |
| CCATACAA | 0.0586 |
